# The other results are listed elsewhere or left out.
# How the values were obtained:
# Assay in all cases: glycan array binding signal (z-score within array); higher = stronger binding
# Details in all cases: glycan notation: IUPAC condensed, linker removed
# [1] = test system: Gal(b1-4)GlcNAc(b1-2)Man(a1-6)[GlcNAc(b1-2)Man(a1-3)]Man(b1-4)GlcNAc(b1-4)GlcNAc
# How it was run: (§1)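 From the Consortium for Functional Glycomics database, 3228 arrays were curated, keeping only those whose protein sequence was available. Binding is given as a within-array Z-score averaged across arrays sharing a protein sequence and across linkers. Negative Z-scores can be read as non-binding.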
# [2] = test system: Gal(b1-4)GlcNAc(b1-2)Man(a1-6)[Man(a1-3)]Man(b1-4)GlcNAc(b1-4)GlcNAc
# How it was run: as §1
# Gal(b1-4)GlcNAc(b1-2)Man = test system: Gal(b1-4)GlcNAc(b1-2)Man
# How it was run: as §1
# [3] = test system: Gal(b1-4)GlcNAc(b1-2)[Gal(b1-4)GlcNAc(b1-4)]Man(a1-3)[Gal(b1-4)GlcNAc(b1-2)Man(a1-6)]Man(b1-4)GlcNAc(b1-4)GlcNAc
# How it was run: as §1
# [4] = test system: Gal(b1-4)GlcNAc(b1-2)[Gal(b1-4)GlcNAc(b1-4)]Man(a1-3)[Gal(b1-4)GlcNAc(b1-2)[Gal(b1-4)GlcNAc(b1-6)]Man(a1-6)]Man(b1-4)GlcNAc(b1-4)GlcNAc
# How it was run: as §1
# [5] = test system: Gal(b1-4)GlcNAc(b1-2)[Gal(b1-4)GlcNAc(b1-4)]Man(a1-3)[GlcNAc(b1-4)][Gal(b1-4)GlcNAc(b1-2)Man(a1-6)]Man(b1-4)GlcNAc(b1-4)GlcNAc
# How it was run: as §1
# [6] = test system: Gal(b1-4)GlcNAc(b1-2)[Gal(b1-4)GlcNAc(b1-4)]Man(a1-3)[GlcNAc(b1-4)][Gal(b1-4)GlcNAc(b1-2)[Gal(b1-4)GlcNAc(b1-6)]Man(a1-6)]Man(b1-4)GlcNAc(b1-4)GlcNAc
# How it was run: as §1
# [7] = test system: Gal(b1-4)GlcNAc(b1-2)[Gal(b1-4)GlcNAc(b1-6)]Man(a1-6)[Gal(b1-4)GlcNAc(b1-2)Man(a1-3)]Man(b1-4)GlcNAc(b1-4)GlcNAc
# How it was run: as §1
# [8] = test system: Gal(b1-4)GlcNAc(b1-2)[Gal(b1-4)GlcNAc(b1-6)]Man(a1-6)[Gal(b1-4)GlcNAc(b1-2)Man(a1-3)]Man(b1-4)GlcNAc(b1-4)[Fuc(a1-6)]GlcNAc
# How it was run: as §1
# [9] = test system: Gal(b1-4)GlcNAc(b1-2)[Gal(b1-4)GlcNAc(b1-6)]Man(a1-6)[GlcNAc(b1-4)][Gal(b1-4)GlcNAc(b1-2)Man(a1-3)]Man(b1-4)GlcNAc(b1-4)GlcNAc
# How it was run: as §1
# [10] = test system: Gal(b1-4)GlcNAc(b1-2)[Gal(b1-4)GlcNAc(b1-6)]Man(a1-6)[GlcNAc(b1-4)][Gal(b1-4)GlcNAc(b1-2)[Gal(b1-4)GlcNAc(b1-4)]Man(a1-3)]Man(b1-4)GlcNAc(b1-4)[Fuc(a1-6)]GlcNAc
# How it was run: as §1
# [11] = test system: Gal(b1-4)GlcNAc(b1-3)Gal(b1-3)GalNAc
# How it was run: as §1
# [12] = test system: Gal(b1-4)GlcNAc(b1-3)Gal(b1-3)GlcNAc
# How it was run: as §1
# [13] = test system: Gal(b1-4)GlcNAc(b1-3)Gal(b1-4)GlcNAc(b1-2)Man(a1-3)[Gal(b1-4)GlcNAc(b1-3)Gal(b1-4)GlcNAc(b1-2)Man(a1-6)]Man(b1-4)GlcNAc(b1-4)GlcNAc
# How it was run: as §1
# [14] = test system: Gal(b1-4)GlcNAc(b1-3)Gal(b1-4)GlcNAc(b1-2)Man(a1-3)[Gal(b1-4)GlcNAc(b1-3)Gal(b1-4)GlcNAc(b1-2)Man(a1-6)]Man(b1-4)GlcNAc(b1-4)[Fuc(a1-6)]GlcNAc
# How it was run: as §1
# [15] = test system: Gal(b1-4)GlcNAc(b1-3)Gal(b1-4)GlcNAc(b1-2)[Gal(b1-4)GlcNAc(b1-3)Gal(b1-4)GlcNAc(b1-6)]Man(a1-6)[Gal(b1-4)GlcNAc(b1-3)Gal(b1-4)GlcNAc(b1-2)Man(a1-3)]Man(b1-4)GlcNAc(b1-4)GlcNAc
# How it was run: as §1
# [16] = test system: Gal(b1-4)GlcNAc(b1-3)Gal(b1-4)GlcNAc(b1-2)[Gal(b1-4)GlcNAc(b1-3)Gal(b1-4)GlcNAc(b1-6)]Man(a1-6)[Gal(b1-4)GlcNAc(b1-3)Gal(b1-4)GlcNAc(b1-2)Man(a1-3)]Man(b1-4)GlcNAc(b1-4)[Fuc(a1-6)]GlcNAc
# How it was run: as §1
# [17] = test system: Gal(b1-4)GlcNAc(b1-3)Gal(b1-4)GlcNAc(b1-3)Gal(b1-4)GlcNAc(b1-2)Man(a1-3)[Gal(b1-4)GlcNAc(b1-3)Gal(b1-4)GlcNAc(b1-3)Gal(b1-4)GlcNAc(b1-2)Man(a1-6)]Man(b1-4)GlcNAc(b1-4)GlcNAc
# How it was run: as §1
# [18] = test system: Gal(b1-4)GlcNAc(b1-3)Gal(b1-4)GlcNAc(b1-3)Gal(b1-4)GlcNAc(b1-2)Man(a1-3)[Gal(b1-4)GlcNAc(b1-3)Gal(b1-4)GlcNAc(b1-3)Gal(b1-4)GlcNAc(b1-2)Man(a1-6)]Man(b1-4)GlcNAc(b1-4)[Fuc(a1-6)]GlcNAc
# How it was run: as §1
# [19] = test system: Gal(b1-4)GlcNAc(b1-3)Gal(b1-4)GlcNAc(b1-3)Gal(b1-4)GlcNAc(b1-2)[Gal(b1-4)GlcNAc(b1-3)Gal(b1-4)GlcNAc(b1-3)Gal(b1-4)GlcNAc(b1-6)]Man(a1-6)[Gal(b1-4)GlcNAc(b1-3)Gal(b1-4)GlcNAc(b1-3)Gal(b1-4)GlcNAc(b1-2)Man(a1-3)]Man(b1-4)GlcNAc(b1-4)[Fuc(a1-6)]GlcNAc
# How it was run: as §1
# [20] = test system: Gal(b1-4)GlcNAc(b1-3)Gal(b1-4)GlcNAc(b1-3)Gal(b1-4)GlcNAc(b1-3)Gal(b1-4)GlcNAc(b1-2)Man(a1-3)[Gal(b1-4)GlcNAc(b1-3)Gal(b1-4)GlcNAc(b1-3)Gal(b1-4)GlcNAc(b1-3)Gal(b1-4)GlcNAc(b1-2)Man(a1-6)]Man(b1-4)GlcNAc(b1-4)GlcNAc
# How it was run: as §1
# [21] = test system: Gal(b1-4)GlcNAc(b1-3)Gal(b1-4)GlcNAc(b1-3)Gal(b1-4)GlcNAc(b1-3)Gal(b1-4)GlcNAc(b1-2)Man(a1-3)[Gal(b1-4)GlcNAc(b1-3)Gal(b1-4)GlcNAc(b1-3)Gal(b1-4)GlcNAc(b1-3)Gal(b1-4)GlcNAc(b1-2)Man(a1-6)]Man(b1-4)GlcNAc(b1-4)[Fuc(a1-6)]GlcNAc
# How it was run: as §1
# [22] = test system: Gal(b1-4)GlcNAc(b1-3)Gal(b1-4)GlcNAc(b1-3)Gal(b1-4)GlcNAc(b1-3)Gal(b1-4)GlcNAc(b1-2)[Gal(b1-4)GlcNAc(b1-3)Gal(b1-4)GlcNAc(b1-3)Gal(b1-4)GlcNAc(b1-3)Gal(b1-4)GlcNAc(b1-6)]Man(a1-6)[Gal(b1-4)GlcNAc(b1-3)Gal(b1-4)GlcNAc(b1-3)Gal(b1-4)GlcNAc(b1-3)Gal(b1-4)GlcNAc(b1-2)Man(a1-3)]Man(b1-4)GlcNAc(b1-4)[Fuc(a1-6)]GlcNAc
# How it was run: as §1
# [23] = test system: Gal(b1-4)GlcNAc(b1-3)Gal(b1-4)GlcNAc(b1-3)Gal(b1-4)GlcNAc(b1-3)Gal(b1-4)GlcNAc(b1-3)Gal(b1-4)GlcNAc(b1-2)Man(a1-3)[Gal(b1-4)GlcNAc(b1-3)Gal(b1-4)GlcNAc(b1-3)Gal(b1-4)GlcNAc(b1-3)Gal(b1-4)GlcNAc(b1-3)Gal(b1-4)GlcNAc(b1-2)Man(a1-6)]Man(b1-4)GlcNAc(b1-4)GlcNAc
# How it was run: as §1
# [24] = test system: Gal(b1-4)GlcNAc(b1-3)Gal(b1-4)GlcNAc(b1-3)Gal(b1-4)GlcNAc(b1-3)Gal(b1-4)GlcNAc(b1-3)Gal(b1-4)GlcNAc(b1-2)Man(a1-3)[Gal(b1-4)GlcNAc(b1-3)Gal(b1-4)GlcNAc(b1-3)Gal(b1-4)GlcNAc(b1-3)Gal(b1-4)GlcNAc(b1-3)Gal(b1-4)GlcNAc(b1-2)Man(a1-6)]Man(b1-4)GlcNAc(b1-4)[Fuc(a1-6)]GlcNAc
# How it was run: as §1
# [25] = test system: Gal(b1-4)GlcNAc(b1-3)Gal(b1-4)GlcNAc(b1-3)Gal(b1-4)GlcNAc(b1-3)Gal(b1-4)GlcNAc(b1-3)Gal(b1-4)GlcNAc(b1-2)[Gal(b1-4)GlcNAc(b1-3)Gal(b1-4)GlcNAc(b1-3)Gal(b1-4)GlcNAc(b1-3)Gal(b1-4)GlcNAc(b1-3)Gal(b1-4)GlcNAc(b1-6)]Man(a1-6)[Gal(b1-4)GlcNAc(b1-3)Gal(b1-4)GlcNAc(b1-3)Gal(b1-4)GlcNAc(b1-3)Gal(b1-4)GlcNAc(b1-3)Gal(b1-4)GlcNAc(b1-2)Man(a1-3)]Man(b1-4)GlcNAc(b1-4)[Fuc(a1-6)]GlcNAc
# How it was run: as §1
# [26] = test system: Gal(b1-4)GlcNAc(b1-3)Gal(b1-4)GlcNAc(b1-3)Gal(b1-4)GlcNAc(b1-3)Gal(b1-4)GlcNAc(b1-3)Gal(b1-4)GlcNAc(b1-3)Gal(b1-4)GlcNAc(b1-2)Man(a1-3)[Gal(b1-4)GlcNAc(b1-3)Gal(b1-4)GlcNAc(b1-3)Gal(b1-4)GlcNAc(b1-3)Gal(b1-4)GlcNAc(b1-3)Gal(b1-4)GlcNAc(b1-3)Gal(b1-4)GlcNAc(b1-2)Man(a1-6)]Man(b1-4)GlcNAc(b1-4)GlcNAc
# How it was run: as §1
# [27] = test system: Gal(b1-4)GlcNAc(b1-3)Gal(b1-4)GlcNAc(b1-3)Gal(b1-4)GlcNAc
# How it was run: as §1
# [28] = test system: Gal(b1-4)GlcNAc(b1-3)Gal(b1-4)GlcNAc(b1-3)GalNAc
# How it was run: as §1
# [29] = test system: Gal(b1-4)GlcNAc(b1-3)Gal(b1-4)GlcNAc(b1-3)[Gal(b1-4)GlcNAc(b1-3)Gal(b1-4)GlcNAc(b1-6)]GalNAc
# How it was run: as §1
# [30] = test system: Gal(b1-4)GlcNAc(b1-3)Gal(b1-4)GlcNAc(b1-6)[Gal(b1-3)]GalNAc
# How it was run: as §1
# [31] = test system: Gal(b1-4)GlcNAc(b1-3)Gal(b1-4)GlcNAc
# How it was run: as §1
substance,measurement,setting,value
MpAFP RI GFP (Marinomonas primoryensis),glycan array binding signal (z-score),[1],-0.304
same,glycan array binding signal (z-score),[2],-0.596
same,glycan array binding signal (z-score),Gal(b1-4)GlcNAc(b1-2)Man,1.23
same,glycan array binding signal (z-score),[3],0.259
same,glycan array binding signal (z-score),[4],-0.325
same,glycan array binding signal (z-score),[5],-0.553
same,glycan array binding signal (z-score),[6],-0.242
same,glycan array binding signal (z-score),[7],-0.226
same,glycan array binding signal (z-score),[8],0.165
same,glycan array binding signal (z-score),[9],-0.095
same,glycan array binding signal (z-score),[10],-0.149
same,glycan array binding signal (z-score),[11],-0.519
same,glycan array binding signal (z-score),[12],0.524
same,glycan array binding signal (z-score),[13],2.61
same,glycan array binding signal (z-score),[14],0.984
same,glycan array binding signal (z-score),[15],2.06
same,glycan array binding signal (z-score),[16],5.48
same,glycan array binding signal (z-score),[17],1.72
same,glycan array binding signal (z-score),[18],1.39
same,glycan array binding signal (z-score),[19],3.87
same,glycan array binding signal (z-score),[20],1.36
same,glycan array binding signal (z-score),[21],1.15
same,glycan array binding signal (z-score),[22],2.53
same,glycan array binding signal (z-score),[23],1.06
same,glycan array binding signal (z-score),[24],1.32
same,glycan array binding signal (z-score),[25],2.17
same,glycan array binding signal (z-score),[26],0.317
same,glycan array binding signal (z-score),[27],-0.561
same,glycan array binding signal (z-score),[28],0.509
same,glycan array binding signal (z-score),[29],1.37
same,glycan array binding signal (z-score),[30],-0.105
same,glycan array binding signal (z-score),[31],-0.727

# In another format: entries from further up.
substance | measurement | setting | value
MpAFP RI GFP (Marinomonas primoryensis) | glycan array binding signal (z-score) | [14] | 0.984
same | glycan array binding signal (z-score) | [15] | 2.06

# Reference: the supplement of paper PMC8728848
